The series has as its system complement component C5. Put plainly: SEC-SAXS of C5-knob domain complexes. The arrangement: species or system human. The conditions noted are these: C5 complex with the peptide, 293 K.

Bridges are numbered along the chain shown (N, C = ends). Where no end group is shown, it is not given here.

Data on one sequence can be found in publication PMC7972453, “The allosteric modulation of complement C5 by knob domain peptides” (eLife, 2021).

Turning to “SVCPDGFDWGYGCAAGSSRFCTRHDWCCYDERADSHTYGFCTGNRVENLYFQ (disulfide 3-28, 13-21, 27-41) [K8]”, the “Rg (from P(r))” value (20mM Tris pH 7.35, 75mM NaCl, 3% glycerol, apo C5 4.8 ± 0.1) stood at 5.4 ± 0.1 nm. The “Rg (from Guinier plot)” value (Tris pH 7.35, apo C5 4.8 ± 0.1) is reported as 5.4 ± 0.1 nm. The Dmax (Tris pH 7.35, apo C5 17.6 ± 0.5) is reported as 18.3 ± 10 nm. Further, the “Porod volume estimate, Vp” value (Tris pH 7.35, apo C5 390 ± 10) is 450 ± 10 nm3.
